Reference: PubChem BioAssay AID1347075 (National Center for Advancing Translational Sciences (NCATS), 2019)
Values joined by “and” are separate entries in the source; they are usually repeats but may differ in a detail not shown here. Equal values may be shown once. The campaign covered roughly 400,000 compounds. About 5,500 (1.4%) were called active. Inconclusive means that the source gave no clear call. Such entries were picked first, then a sample of the others. Calls come from the whole dose curve; as a rule, active = well fitted cell-killing curve with a large enough effect; inconclusive = small, poorly fitted or top-dose-only effect, or effect the other way; inactive = flat fitted curve, though single readings scatter. A potency beside an inconclusive call is a rough fit, not a confirmed value.

experiment: qHTS assay for MDR1-selective chemotherapeutics: Primary screen using the parental adenocarcinoma cell KB-3-1; details: KB-3-1 viability, CellTiter-Glo ATP luminescence, 72 h; activity change, negative = cytotoxic: at 46.1 µM (top of the series); note: nearly all actives have a fitted effect of over 60% in size
Method in brief: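 Cytotoxicity in the drug-sensitive parental line KB-3-1 was scored as loss of CellTiter-Glo luminescence following 72 h incubation with compound. Values come from curve fitting of normalized concentration-response data.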
% is set by controls: 0 for no effect and ±100 for the full control effect; potency is the fitted concentration of half-maximal effect.

Row | SMILES | Potency | activity change, negative = cytotoxic
1 | Cc1ccc(Cl)cc1NS(=O)(=O)c1ccc2c(c1)NC(=O)CCS2 | inconclusive: 18.4 µM [cytotoxic, single point] | 
2 | O=C(NC1CCCCC1)C(c1ccco1)N(CCc1ccccc1)C(=O)C(F)(F)F (stereo not given) | inconclusive: 25.9 µM [cytotoxic, single point] | 
3 | COc1ccc(NC(=O)CC2CCCCC2)cc1OC | inactive | 
4 | CCOc1ccc(NC(=O)c2cccc(S(=O)(=O)Nc3c(C)n(C)n(-c4ccccc4)c3=O)c2)cc1 | inactive | 
5 | COc1ccc(-c2cn(-c3ccc(Cl)cc3)c3[n+]2CCCCC3)cc1 | active: 9.2 µM | 
6 | COc1cc(C(=O)Nc2ccc(C)c(S(=O)(=O)N(C)C)c2)ccc1OCC(=O)N1CCOCC1 | inactive | 
7 | CC1CN(S(=O)(=O)c2ccc(C(=O)Nc3nnc(-c4ccc5c(c4)CCCC5)o3)cc2)CC(C)O1 (stereo not given) | inconclusive: 29.1 µM [cytotoxic, single point] | 
8 | CN1CCc2c(sc3c2c(=O)n(-c2cccc(Cl)c2)c2nncn32)C1 | inactive | 
9 | CC1(C)C=Cc2c(c3c(c4c(=O)c(-c5ccc(O)cc5)coc24)OC(C)(C)CC3)O1 | inconclusive: 29.1 µM [cytotoxic, single point] | 
10 | CCOc1ccc(S(=O)(=O)N2CCN=C2c2ccccc2)cc1 | inconclusive: 18.4 µM [cytotoxic, partial curve, poor fit] | 
11 | Cn1c(SCC(=O)Nc2ccc(N3CCOCC3)cc2)nnc1-c1ccco1 | inconclusive: 0.259 µM [cytotoxic, full curve] | 
12 | CCC(C(=O)OCC(=O)C1(O)CCC2C3CCC4=CC(=O)CCC4(C)C3C(O)CC21C)C(C)C (stereo not given) | inconclusive: 18.4 µM [cytotoxic, single point] | 
13 | O=C([O-])c1ccccc1-[n+]1c(-c2ccccc2)cc(-c2ccccc2)cc1-c1ccccc1 | inactive | 
14 | CCNC(=S)NN(c1ccccc1)c1ccccc1 | inactive | 
15 | CC(C)(C)n1nnnc1C(c1ccccn1)N(Cc1ccccc1)Cc1ccc(Cl)cc1 (stereo not given) | inconclusive: 18.4 µM [cytotoxic, single point] | 
16 | CN(C)c1ccc(/C=C/c2nc3ccccc3s2)cc1 | inconclusive: 461 nM [cytotoxic, full curve, poor fit] and active: 16.4 µM | 
17 | COc1ccc(NC(=O)c2sc3nc(-c4cc5ccc(OC)cc5oc4=O)[nH]c(=O)c3c2C)cc1 | inactive | 
18 | c1csc(Cc2nn3c(-c4n[nH]c5c4CCC5)nnc3s2)c1 | inconclusive: 16.4 µM [cytotoxic, partial curve] | 
19 | O=C(Cn1cnc2ccccc21)N/N=C/c1cccc([N+](=O)[O-])c1 | inactive | 
20 | COc1cc2[nH]c(=O)n(CCCCCC(=O)N3CCN(c4ccccn4)CC3)c(=O)c2cc1OC | inconclusive: 1.46 µM [rising, full curve] | 
21 | O=C(CCCN1C(=O)/C(=C/c2cccs2)SC1=S)Nc1ccccc1O | inconclusive: 29.1 µM [cytotoxic, single point] | 
22 | CC(=O)c1c(C)[nH]c(C(=O)N2CCN(c3cc(Cl)ccc3C)CC2)c1C | active: 4.61 µM | 
23 | COc1ccc(OCC(=O)N2CCC(c3nc4ccccc4s3)CC2)cc1 | inconclusive: 18.4 µM [cytotoxic, single point] | 
24 | O=C(Cn1ccnc1[N+](=O)[O-])NCc1ccccc1 | inactive | 

Row | SMILES | Potency | activity change, negative = cytotoxic
25 | Cc1ccc2c(NC(=O)c3ccco3)cccc2n1 |  | inconclusive: -16.6%
26 | COc1ccc(CNC(=O)c2ccc(Cl)c(S(=O)(=O)N3CCOCC3)c2)cc1OC | inconclusive: 20.6 µM [cytotoxic, partial curve, poor fit] | 
27 | ON=C1c2ccccc2-c2cc(Br)ccc21 | inactive | 
28 | COc1ccc(NC(=O)CN(C)C(=O)c2cc(-c3ccc(C)o3)nc3ccccc23)cc1 | inconclusive: 29.1 µM [rising, single point] | 
29 | CNc1nc(Sc2ccc(C)cc2)cc(C(F)(F)F)n1 | inconclusive: 18.4 µM [cytotoxic, single point] | 
30 | N#CCc1cc2ccc3cccc4ccc(c1)c2c34 | inconclusive: 29.1 µM [cytotoxic, single point] | 
31 | CC(=O)Nc1ccc(CN2CCN(CC=C(C)C)C(CCO)C2)cc1 (stereo not given) | inactive | 
32 | O=c1cc(C(F)(F)F)[nH]c2ccc(C(F)(F)F)cc12 | inconclusive: 29.1 µM [cytotoxic, single point] | 
33 | CCOC(=O)/C(C#N)=C/c1c[nH]c2ccccc12 | inactive | 
34 | CC1Cc2cc(S(=O)(=O)NCCc3ccc(Cl)cc3)ccc2N1C(=O)C1CCC1 (stereo not given) | inconclusive: 29.1 µM [cytotoxic, single point] | 
35 | CC(=O)c1ccccc1OCCCN1CCCCC1 | inactive | 
36 | Oc1ccccc1C=NNC(=S)NC1CC2C=CC1C2 (stereo not given) | inconclusive: 23.1 µM [cytotoxic, single point] | 
37 | CC(C)OCCCNC(=O)c1cn(C)c2ccc(S(=O)(=O)N3CCCCCC3)cc2c1=O | inconclusive: 14.6 µM [rising, partial curve] | 
38 | Cc1cccc(N2CCN(C(=O)C3CCCN(S(=O)(=O)c4ccc5c(c4)oc(=O)n5C)C3)CC2)c1C (stereo not given) | active: 7.31 µM | 
39 | COC(=O)[C@@]12C[C@@H](CC(=O)NCC3CCCCC3)C(=O)N(Cc3ccccc3)C1=CCC(C)(C)C2 | inactive | 
40 | CCCCCn1c(C(Cc2ccccc2)NC(C)=O)nc2ccccc21 (stereo not given) | inconclusive: 29.1 µM [cytotoxic, single point] | 
41 | Cc1ccc2nc(SCc3ccccc3)c(C=O)c(=O)n2c1 | inactive | 
42 | COc1cccc(CC2(CO)CCCN(Cc3[nH]c4ccc(C)cc4c3C)C2)c1 (stereo not given) | inconclusive: 29.1 µM [cytotoxic, partial curve, poor fit] | 
43 | Cc1ccsc1/C=N/N1CCN(C2c3ccccc3-c3ccccc32)CC1 | inconclusive: 29.1 µM [cytotoxic, single point] | 
44 | CCOc1ccccc1C(=O)N(C)Cc1cc2cc(OC)ccc2[nH]c1=O | inactive | 
45 | CC(O)CNCc1ccccc1C(F)(F)F (stereo not given) | inactive | 
46 | CCOC(=O)C1CCN(S(=O)(=O)c2ccc(Cl)s2)CC1 | inconclusive: 3.26 µM [rising, partial curve, poor fit] | 
47 | OCCN(CCO)c1ccc(C(c2ccccc2Cl)c2ccc(N(CCO)CCO)cc2Cl)c(Cl)c1 | inconclusive: 20.6 µM [cytotoxic, single point] | 
48 | O=c1c(Cl)c(NCc2ccc(F)cc2)cnn1C12CC3CC(CC(C3)C1)C2 | inconclusive: 25.9 µM [cytotoxic, single point] | 

Row | SMILES | Potency | activity change, negative = cytotoxic
49 | CCOc1cc(/C=C/c2cccc[n+]2C)ccc1OCC(=O)Nc1ccc(C)cc1 | inconclusive: 3.26 µM [cytotoxic, single point] | 
50 | CCCc1c(-c2ccc(F)cc2)ncn1CCc1ccccc1OC | inconclusive: 29.1 µM [cytotoxic, single point] | 
51 | CCN(CC(=O)Nc1cccc(S(=O)(=O)N(C)c2ccccc2)c1)Cc1cccs1 | inconclusive: 16.4 µM [cytotoxic, single point] | 
52 | CCOc1cc(/C=C2\N=C(C)OC2=O)cc(Br)c1OCCc1ccccc1 | inconclusive: 11.6 µM [rising, partial curve, poor fit] | 
53 | O=C(NN=Cc1ccccc1O)C(O)(c1ccccc1)c1ccccc1 | inconclusive: 16.4 µM [cytotoxic, single point] | 
54 | CN(CC(=O)Nc1cccc(F)c1)C(=O)c1ccc(OCc2ccccc2)cc1 | inactive | 
55 | COc1ccc(NC(=O)c2sc3ncnc(N4CCN(c5ccccn5)CC4)c3c2C)cc1Cl | inconclusive: 23.1 µM [cytotoxic, partial curve, poor fit] | 
56 | CCOC(=O)N1CCN(Cc2nc3cc(NC(=O)c4ccco4)ccc3n2CC)CC1 | inconclusive: 32.6 µM [rising, single point] | 
57 | COc1cc(/C=C(/C(=O)c2cccs2)c2nc3ccccc3[nH]2)cc(OC)c1O | active: 3.66 µM | 
58 | Cc1cc(/C=C(\C#N)C(=O)Nc2ccccc2)c(C)n1-c1ccc2c(c1)OCO2 | inactive | 
59 | O=C(Nc1ccccc1C(F)(F)F)c1ccc(CN2CCC(Cc3ccccc3)CC2)cc1 | inconclusive: 18.4 µM [cytotoxic, single point] | 
60 | O=C(O)C1=C[C@H](c2cccs2)C[C@H](OCCCCO)O1 | inconclusive: 1.3 µM [rising, single point] | 
61 | CCN(CC)c1ccc(/C=N/NC(=O)c2cccc(S(=O)(=O)Nc3ccccc3OC)c2)c(O)c1 | inconclusive: 2.59 µM [cytotoxic, full curve] | 
62 | O=C1NC(=O)N(c2ccccc2)C1=O | inconclusive: 29.1 µM [rising, single point] | 
63 | Cc1ccc(N2CC(c3nnc(Cc4ccc(F)cc4)o3)CC2=O)cc1 (stereo not given) | inactive | 
64 | O=C(Nc1ccc(N2CCCC2)cc1)c1ccccc1[N+](=O)[O-] | inconclusive: 25.9 µM [cytotoxic, single point] | 
65 | COc1cccc(CNC(=O)Cc2ccc(NC(=O)C3=C(C)OCCS3)cc2)c1 | inconclusive: 18.4 µM [cytotoxic, partial curve] | 
66 | CC1CN(C(=O)COC(=O)c2ccc3ccccc3c2)CC(C)O1 (stereo not given) | inactive | 
67 | COc1cc(Cl)c(NC(=O)c2cc(CN3CCCC3)on2)c(OC)c1 | inactive | 
68 | CN(C(=O)c1ccc(-c2nn(C)c(=O)c3ccccc23)cc1)C1CCCCC1 | active: 18.4 µM | 
69 | O=C(Nc1ccc(Br)c2ccccc12)c1ccc2ccccc2c1O | inactive | 
70 | Cc1ccc2nc3n(c(=O)c2c1)-c1cc2ccccc2cc1C(=O)NC3Cc1ccccc1 (stereo not given) | inconclusive: 29.1 µM [cytotoxic, single point] | 

Some values from the results shown:
In Potency, `Cc1ccc(N2CC(c3nnc(Cc4ccc(F)cc4)o3)CC2=O)cc1` (stereo not given) reads inactive
In Potency, `O=C(Nc1ccc(N2CCCC2)cc1)c1ccccc1[N+](=O)[O-]` reads inconclusive: 25.9 µM [cytotoxic, single point]
In Potency, `CN(CC(=O)Nc1cccc(F)c1)C(=O)c1ccc(OCc2ccccc2)cc1` reads inactive

A run of entries taken from the entries so far, for reference:
Row | SMILES | Potency | activity change, negative = cytotoxic
63 | Cc1ccc(N2CC(c3nnc(Cc4ccc(F)cc4)o3)CC2=O)cc1 (stereo not given) | inactive | 
64 | O=C(Nc1ccc(N2CCCC2)cc1)c1ccccc1[N+](=O)[O-] | inconclusive: 25.9 µM [cytotoxic, single point] | 
65 | COc1cccc(CNC(=O)Cc2ccc(NC(=O)C3=C(C)OCCS3)cc2)c1 | inconclusive: 18.4 µM [cytotoxic, partial curve] | 
